Data reported in paper PMC9438803 (Life Science Alliance, 2021).
For part of these data: The comparison behind a weaker result is the experiment's own reference, which may not be listed here. For part of these data: The exact form of at least one protein or probe is not confirmed. For part of these data: A negative result means that nothing was seen under these conditions. For part of these data: At least one verdict was read from the data and is not stated in words by the source.

Chains of the proteins cited; added tags and fusions are not shown. Chains listed by the source or under a name are the forms on record and can include a tag or linker. Residues count along the entry.
UniProt O95602, 1060-1155: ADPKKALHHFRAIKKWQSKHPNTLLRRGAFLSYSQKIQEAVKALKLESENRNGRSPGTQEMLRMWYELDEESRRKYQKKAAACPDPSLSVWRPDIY
UniProt O15446, 131-510: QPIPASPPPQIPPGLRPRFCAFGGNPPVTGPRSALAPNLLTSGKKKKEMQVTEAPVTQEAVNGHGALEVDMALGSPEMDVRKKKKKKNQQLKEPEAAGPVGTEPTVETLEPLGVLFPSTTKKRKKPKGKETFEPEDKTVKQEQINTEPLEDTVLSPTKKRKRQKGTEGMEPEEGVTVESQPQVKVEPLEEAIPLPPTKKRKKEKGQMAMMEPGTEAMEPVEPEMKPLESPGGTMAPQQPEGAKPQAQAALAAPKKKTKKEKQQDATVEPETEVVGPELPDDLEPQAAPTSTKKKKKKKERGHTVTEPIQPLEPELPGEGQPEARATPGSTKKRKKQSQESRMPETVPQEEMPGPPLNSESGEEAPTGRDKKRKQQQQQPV
Core Factor (Saccharomyces cerevisiae), one chain, as listed by the source, chain 2 of 3: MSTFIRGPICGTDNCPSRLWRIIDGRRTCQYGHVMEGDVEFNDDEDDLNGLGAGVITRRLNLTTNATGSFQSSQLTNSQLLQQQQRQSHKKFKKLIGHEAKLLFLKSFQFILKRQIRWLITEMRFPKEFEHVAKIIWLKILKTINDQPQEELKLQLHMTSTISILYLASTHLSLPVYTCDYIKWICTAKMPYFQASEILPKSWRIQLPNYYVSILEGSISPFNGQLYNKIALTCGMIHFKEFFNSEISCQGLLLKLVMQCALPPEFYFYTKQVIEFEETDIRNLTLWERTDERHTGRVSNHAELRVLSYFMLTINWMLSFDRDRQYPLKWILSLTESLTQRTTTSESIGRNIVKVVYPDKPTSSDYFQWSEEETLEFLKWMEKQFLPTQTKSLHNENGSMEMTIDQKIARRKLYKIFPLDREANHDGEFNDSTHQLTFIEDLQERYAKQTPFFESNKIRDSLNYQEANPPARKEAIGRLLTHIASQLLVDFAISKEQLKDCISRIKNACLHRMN
A49/A34.5 heterodimer (Saccharomyces cerevisiae), one chain, as listed by the source, chain 2 of 2: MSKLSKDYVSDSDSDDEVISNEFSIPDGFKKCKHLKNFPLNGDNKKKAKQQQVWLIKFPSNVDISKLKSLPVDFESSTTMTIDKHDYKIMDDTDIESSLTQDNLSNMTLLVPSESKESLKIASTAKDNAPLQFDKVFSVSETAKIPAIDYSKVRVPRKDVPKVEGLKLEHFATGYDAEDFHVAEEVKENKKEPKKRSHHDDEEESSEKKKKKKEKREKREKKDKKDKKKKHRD
RPA49FL/RPA34(1-343) (Homo sapiens), one chain, as listed by the source, chain 2 of 2: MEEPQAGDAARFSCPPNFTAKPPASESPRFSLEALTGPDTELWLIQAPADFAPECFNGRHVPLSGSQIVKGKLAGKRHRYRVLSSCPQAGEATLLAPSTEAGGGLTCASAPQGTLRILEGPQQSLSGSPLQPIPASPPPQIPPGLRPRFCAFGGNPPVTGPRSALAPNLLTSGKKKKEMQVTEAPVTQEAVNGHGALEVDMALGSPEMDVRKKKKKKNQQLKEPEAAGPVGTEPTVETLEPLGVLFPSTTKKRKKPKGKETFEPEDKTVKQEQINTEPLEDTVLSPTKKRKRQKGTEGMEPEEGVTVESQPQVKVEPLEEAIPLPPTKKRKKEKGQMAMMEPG
A49/A34.5 heterodimer (Saccharomyces cerevisiae), one chain, as listed by the source, chain 1 of 2: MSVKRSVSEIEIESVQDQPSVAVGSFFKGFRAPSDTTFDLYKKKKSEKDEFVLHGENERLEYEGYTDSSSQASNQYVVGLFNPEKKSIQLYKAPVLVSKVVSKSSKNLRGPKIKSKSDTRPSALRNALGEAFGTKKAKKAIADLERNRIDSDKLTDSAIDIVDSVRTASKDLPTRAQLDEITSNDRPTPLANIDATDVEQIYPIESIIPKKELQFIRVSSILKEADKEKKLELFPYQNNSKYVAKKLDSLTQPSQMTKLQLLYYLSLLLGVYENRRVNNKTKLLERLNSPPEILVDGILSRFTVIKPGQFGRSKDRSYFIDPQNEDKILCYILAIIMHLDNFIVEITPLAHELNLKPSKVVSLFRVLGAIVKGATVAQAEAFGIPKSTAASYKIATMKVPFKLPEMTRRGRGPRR
RPA49FL/RPA34(1-343) (Homo sapiens), one chain, as listed by the source, chain 1 of 2: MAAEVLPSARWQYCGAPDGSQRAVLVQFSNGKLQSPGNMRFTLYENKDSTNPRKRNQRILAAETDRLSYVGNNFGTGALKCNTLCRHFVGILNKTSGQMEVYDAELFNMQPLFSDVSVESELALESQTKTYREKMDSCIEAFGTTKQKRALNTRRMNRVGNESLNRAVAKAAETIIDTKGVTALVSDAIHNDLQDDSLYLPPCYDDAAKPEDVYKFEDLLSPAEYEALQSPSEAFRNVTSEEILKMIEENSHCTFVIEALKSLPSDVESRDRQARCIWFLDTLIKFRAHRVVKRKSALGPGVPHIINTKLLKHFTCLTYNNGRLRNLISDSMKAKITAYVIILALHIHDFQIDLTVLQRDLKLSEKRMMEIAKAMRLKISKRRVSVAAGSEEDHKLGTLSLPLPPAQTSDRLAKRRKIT
Core Factor (Saccharomyces cerevisiae), one chain, as listed by the source, chain 3 of 3: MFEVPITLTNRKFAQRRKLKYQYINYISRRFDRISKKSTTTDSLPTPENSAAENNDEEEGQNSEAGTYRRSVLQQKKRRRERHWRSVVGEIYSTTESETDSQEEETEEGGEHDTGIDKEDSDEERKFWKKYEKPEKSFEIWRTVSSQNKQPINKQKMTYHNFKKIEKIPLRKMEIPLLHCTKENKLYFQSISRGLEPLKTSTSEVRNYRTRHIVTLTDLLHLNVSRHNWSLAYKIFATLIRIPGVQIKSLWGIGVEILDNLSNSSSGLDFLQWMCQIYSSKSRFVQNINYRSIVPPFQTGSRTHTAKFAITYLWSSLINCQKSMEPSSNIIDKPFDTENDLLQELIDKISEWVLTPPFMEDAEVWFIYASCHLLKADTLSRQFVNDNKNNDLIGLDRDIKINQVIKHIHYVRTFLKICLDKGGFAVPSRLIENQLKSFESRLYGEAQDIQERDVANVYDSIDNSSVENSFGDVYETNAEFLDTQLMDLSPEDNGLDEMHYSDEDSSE
Core Factor (Saccharomyces cerevisiae), one chain, as listed by the source, chain 1 of 3: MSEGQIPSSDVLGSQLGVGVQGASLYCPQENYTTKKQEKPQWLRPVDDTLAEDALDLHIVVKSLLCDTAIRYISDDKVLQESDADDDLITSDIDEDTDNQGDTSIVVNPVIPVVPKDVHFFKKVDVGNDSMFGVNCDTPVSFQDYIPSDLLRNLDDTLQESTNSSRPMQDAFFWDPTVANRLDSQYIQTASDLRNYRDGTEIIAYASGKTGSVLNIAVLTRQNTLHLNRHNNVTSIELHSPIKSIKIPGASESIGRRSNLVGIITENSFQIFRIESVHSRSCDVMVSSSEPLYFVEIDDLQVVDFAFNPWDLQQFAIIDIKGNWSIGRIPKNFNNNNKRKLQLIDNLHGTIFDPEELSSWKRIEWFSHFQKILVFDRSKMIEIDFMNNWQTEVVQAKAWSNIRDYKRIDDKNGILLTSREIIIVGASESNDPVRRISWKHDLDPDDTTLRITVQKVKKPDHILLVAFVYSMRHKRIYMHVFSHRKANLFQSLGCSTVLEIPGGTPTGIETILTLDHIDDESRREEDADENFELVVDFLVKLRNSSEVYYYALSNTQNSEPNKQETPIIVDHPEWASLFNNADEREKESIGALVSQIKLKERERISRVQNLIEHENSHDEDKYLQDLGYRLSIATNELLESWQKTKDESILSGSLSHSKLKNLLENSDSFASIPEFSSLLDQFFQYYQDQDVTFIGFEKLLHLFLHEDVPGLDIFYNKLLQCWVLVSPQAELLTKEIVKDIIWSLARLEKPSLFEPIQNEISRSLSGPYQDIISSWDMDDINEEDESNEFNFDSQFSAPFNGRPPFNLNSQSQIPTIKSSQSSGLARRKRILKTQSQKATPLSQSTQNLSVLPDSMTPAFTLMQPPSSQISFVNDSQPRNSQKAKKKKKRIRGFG

What was measured:
Assay in all cases: EMSA
[1] = tested on: RPA49FL/RPA34(1-343) (Homo sapiens); details: EMSA: 100 fmol DNA, up to 50x protein, RT 30 min; buffer 1: 10 mM Tris pH 7.5, 50 mM NaCl, 1 mM MgCl2, 4% glycerol, 0.5 mM EDTA, 0.5 mM DTT; recombinant …; protein details: N-term 6xHis on RPA49, RPA34 untagged; label: 5'-Cy5 on strand 1
[2] = molecular target: dock II full-length (RPA1 foot HMG-like domain) (Homo sapiens) (UniProt O95602); details: residual binding at 50x protein excess; EMSA: 100 fmol DNA, up to 50x protein, RT 30 min; buffer 1: 10 mM Tris pH 7.5, 50 mM NaCl, 1 mM MgCl2, 4% glycerol, 0.5 mM EDTA, 0.5 mM DTT; recombinant protein; residues 1060-1155; protein details: C-term His-MBP; label: 5'-Cy5 on strand 1
[3] = tested on: A49/A34.5 heterodimer (Saccharomyces cerevisiae); details: EMSA: 100 fmol DNA, up to 50x protein, RT 30 min; buffer 1: 10 mM Tris pH 7.5, 50 mM NaCl, 1 mM MgCl2, 4% glycerol, 0.5 mM EDTA, 0.5 mM DTT; recombinant …; protein details: C-term 6xHis on A49; label: 5'-Cy5 on strand 1
MBP-6xHis tag only = details: negative control; EMSA: 100 fmol DNA, up to 50x protein, RT 30 min; buffer 1: 10 mM Tris pH 7.5, 50 mM NaCl, 1 mM MgCl2, 4% glycerol, 0.5 mM EDTA, 0.5 mM DTT; recombinant protein; protein details: MBP-6xHis; label: 5'-Cy5 on strand 1
[4] = molecular target: RPA34(131-510) (Homo sapiens) (UniProt O15446); details: EMSA: 100 fmol DNA, up to 50x protein, RT 30 min; buffer 1: 10 mM Tris pH 7.5, 50 mM NaCl, 1 mM MgCl2, 4% glycerol, 0.5 mM EDTA, 0.5 mM DTT; recombinant …; residues 131-510; protein details: N-term 6xHis; label: 5'-Cy5 on strand 1
[5] = tested on: Core Factor (Saccharomyces cerevisiae); details: positive control; EMSA: 100 fmol DNA, up to 50x protein, RT 30 min; buffer 1: 10 mM Tris pH 7.5, 50 mM NaCl, 1 mM MgCl2, 4% glycerol, 0.5 mM EDTA, 0.5 mM DTT; recombinant protein; label: 5'-Cy5 on strand 1

“CTGGAACAACACTCAACCCTATCTCGGTCTATTCTTTTGA (double strand) [EMSA-DNA 40 bp]”: binds [1]; binds more weakly [2]; binds [3]. “CTGGAACAACACTCAACCCTATCTCGGTCTATTCTTTTGA (double strand) [EMSA-DNA 40 bp]”: no binding (MBP-6xHis tag only); binds [4]; binds [5].
